Reference: PMC4278855
Results are given in words; binding and its absence hold for the method and conditions named. Binding seen in cells or lysates may run through a third protein. These calls come from enrichment with a bait or labelling near it, and not all partners need be listed. Sequences can lack the tags named with a protein.

Protein sequences, listed by entry. Tags and fused reporters are not part of them.
UniProt P63151: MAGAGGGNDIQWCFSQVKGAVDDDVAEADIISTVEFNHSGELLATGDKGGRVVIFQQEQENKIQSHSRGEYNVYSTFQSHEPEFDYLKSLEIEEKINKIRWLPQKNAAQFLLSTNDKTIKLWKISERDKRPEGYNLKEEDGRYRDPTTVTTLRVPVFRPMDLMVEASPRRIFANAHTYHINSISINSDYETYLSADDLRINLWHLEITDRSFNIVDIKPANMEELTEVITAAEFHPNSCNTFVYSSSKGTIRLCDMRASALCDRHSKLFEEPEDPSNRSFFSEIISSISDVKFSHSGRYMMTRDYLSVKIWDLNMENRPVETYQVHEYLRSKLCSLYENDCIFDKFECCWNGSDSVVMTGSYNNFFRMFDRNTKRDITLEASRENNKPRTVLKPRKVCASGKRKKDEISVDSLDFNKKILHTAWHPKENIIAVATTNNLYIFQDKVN
UniProt P30153: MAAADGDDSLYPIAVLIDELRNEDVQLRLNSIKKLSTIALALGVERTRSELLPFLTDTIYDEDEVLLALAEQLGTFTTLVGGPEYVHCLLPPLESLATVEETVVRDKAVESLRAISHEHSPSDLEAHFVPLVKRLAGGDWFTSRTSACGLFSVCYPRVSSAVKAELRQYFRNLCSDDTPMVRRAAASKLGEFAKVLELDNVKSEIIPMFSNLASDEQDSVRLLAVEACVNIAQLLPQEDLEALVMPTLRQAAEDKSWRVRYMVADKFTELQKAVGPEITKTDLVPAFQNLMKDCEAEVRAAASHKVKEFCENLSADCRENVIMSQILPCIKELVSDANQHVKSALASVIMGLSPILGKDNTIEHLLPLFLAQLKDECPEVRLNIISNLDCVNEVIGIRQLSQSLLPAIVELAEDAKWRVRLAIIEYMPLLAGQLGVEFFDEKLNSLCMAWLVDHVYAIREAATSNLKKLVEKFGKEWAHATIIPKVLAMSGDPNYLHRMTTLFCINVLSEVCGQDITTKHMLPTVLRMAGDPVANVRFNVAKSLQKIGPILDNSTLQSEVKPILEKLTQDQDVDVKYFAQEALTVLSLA
UniProt P67775: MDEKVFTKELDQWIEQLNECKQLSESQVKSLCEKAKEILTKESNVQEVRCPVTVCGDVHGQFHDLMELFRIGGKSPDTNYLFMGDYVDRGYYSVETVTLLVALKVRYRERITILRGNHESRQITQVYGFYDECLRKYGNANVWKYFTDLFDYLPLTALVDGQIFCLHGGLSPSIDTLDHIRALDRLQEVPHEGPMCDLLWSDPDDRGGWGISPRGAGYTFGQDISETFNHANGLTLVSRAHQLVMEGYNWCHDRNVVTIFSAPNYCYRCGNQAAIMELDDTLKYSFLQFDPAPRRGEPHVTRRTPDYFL
UniProt P62714: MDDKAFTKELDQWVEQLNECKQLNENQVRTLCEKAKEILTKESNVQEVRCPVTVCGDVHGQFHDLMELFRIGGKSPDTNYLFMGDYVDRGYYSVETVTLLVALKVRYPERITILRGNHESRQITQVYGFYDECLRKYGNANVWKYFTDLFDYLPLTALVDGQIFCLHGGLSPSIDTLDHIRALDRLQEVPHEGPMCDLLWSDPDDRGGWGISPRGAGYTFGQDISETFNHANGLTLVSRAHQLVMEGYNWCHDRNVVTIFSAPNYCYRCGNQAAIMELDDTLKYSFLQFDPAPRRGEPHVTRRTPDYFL

The substances below were run against T1, His-NOSIP (nitric oxide synthase interacting protein) (UniProt Q9Y314) (assay: affinity purification with mass spectrometry; purified His-NOSIP coupled to a HiTrap NHS-activated HP column; total HeLa cell lysate injected; binding buffer 50 mM Tris-HCl pH 7.5, 150 mM NaCl; eluted with 100 mM glycine-HCl pH 2.5; Coomassie bands analysed by mass spectrometry; unloaded control column; only the target purified).
T1 sequence: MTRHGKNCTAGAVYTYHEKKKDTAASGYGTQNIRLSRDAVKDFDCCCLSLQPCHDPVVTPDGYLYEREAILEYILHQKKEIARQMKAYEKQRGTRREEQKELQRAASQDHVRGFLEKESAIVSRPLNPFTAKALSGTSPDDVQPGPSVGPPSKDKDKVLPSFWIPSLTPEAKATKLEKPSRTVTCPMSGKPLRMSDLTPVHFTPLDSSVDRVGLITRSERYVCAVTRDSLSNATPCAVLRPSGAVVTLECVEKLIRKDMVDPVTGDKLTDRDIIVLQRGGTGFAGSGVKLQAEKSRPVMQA

Substance | binding
PP2A subunit B isoform B55-alpha (from UniProt P63151 1-447) | binds
PP2A subunit A isoform PR65-alpha (from UniProt P30153 1-589) | binds
PP2A catalytic subunit alpha isoform (from UniProt P67775 1-309) (enzyme) | binds
PP2A catalytic subunit beta isoform (from UniProt P62714 1-309) (enzyme) | binds
